Laboratory results from patent US20250025465A1, “WT-IDH1 INHIBITION USING A COVALENT AND BRAIN-PENETRANT SMALL MOLECULAR INHIBITOR FOR FERROPTOSIS INDUCTION IN HIGH-GRADE GLIOMA” (Northwestern University, priority 2021, published 2025).
At least one compound was matched to its structure with a doubt left.

Test system: IGFBP2 mRNA
Assay: IGFBP2 mRNA by RT-qPCR in IDH1-wt KD GICs
Format: cell-based
Conditions: GICs stably expressing IDH1-wt-specific shRNA, FIG. 18B, C

## Nc1ncn([C@H]2C[C@H](O)[C@@H](CO)O2)c(=O)n1 [decitabine]
  IGFBP2 mRNA level: increased IGFBP2 mRNA level in IDH1-wt KD GICs to the level of shCo-infected cells
